In paper PMC9889334 one finds Kd data, which are given here for 1 sequence.

pKd: −log10 of the molar value. Construct, isoform or probe ends are uncertain for at least one entry.

This data set has as its system PaCgi121 + PaBud32 + PaKae1 + PaPcc1-His6. Briefly: fluorescence anisotropy. The settings on record: CBKP1 complex, 3 mM Mg2+, n=4; 20 mM Tris-HCl pH 8, 150 mM KCl, 3 mM MgCl2, 1% glycerol, 1 nM labelled tRNA (10 nM in Suppl. Fig. 7C), 20 °C, 15 min; recombinant protein; protein details: His6; label: 3' fluorescein.

For the sequence “GGGCCGGUAGCUCAGCCUGGUCAGAGCACCGGGCUUUUAACCCGGUGGUCGCGGGUUCAAAUCCCGCCCGGCCCGCCA [Pa_tRNALys (UUU)]”, the pKd is 7.89.

A word on the pKd: it is −log10 of the Kd, conventionally taken in molar units.
